Experimental data: PubChem BioAssay AID504771 (Drosophila RNAi Screening Center, 2011)
Screen: 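Knock-downs that increase or decrease Htt-Q46 aggregates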 (follow-up of hits). Cell system: Drosophila S2 cells with copper-inducible mutant huntingtin exon 1 (46 glutamines)-eGFP. Reagent: long dsRNA against Drosophila genes, 250 ng dsRNA per well. Timing: 3 days of knock-down, then 2 days of copper induction before fixing. Challenge: copper sulfate at 400 µM to switch on Htt-Q46-eGFP expression. Read-out: 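Automated image analysis of GFP-tagged aggregates per well: number, size and intensity against plate mean and SD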. Active means: 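Primary hit when aggregate count, size or brightness differed from plate mean by over 2 SD; called active only after clearing every validation step (off-target, repeat, second dsRNA, promoter counter-screen)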. Meaning of the calls: active = confirmed modifier; inactive = primary candidate not confirmed.
Only reagents picked out of a larger screen are listed. 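All genes were primary candidates; inactive means validation failed, not no effect; aggregate scores behind calls are not deposited.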 Reagents against one gene are numbered here. Reagent sequences are not shown.

The opening 9 entries, to show the layout:
Target gene | reagent no. | aggregation phenotype | call
MED17 | 1 | knock-down lowers aggregates | inactive
Odj | 1 | knock-down raises aggregates | active
Hsf | 1 | knock-down raises aggregates | active
CG8545 | 1 | knock-down lowers aggregates | inactive
FASN1 | 1 | knock-down lowers aggregates | inactive
Rab1 | 1 | knock-down lowers aggregates | active
SLO2 | 1 | knock-down lowers aggregates | inactive
pea | 1 | knock-down lowers aggregates | active
CG31111 | 1 | knock-down lowers aggregates | active

Main list, repeating the preview:
Target gene | reagent no. | aggregation phenotype | call
MED17 | 1 | knock-down lowers aggregates | inactive
Odj | 1 | knock-down raises aggregates | active
Hsf | 1 | knock-down raises aggregates | active
CG8545 | 1 | knock-down lowers aggregates | inactive
FASN1 | 1 | knock-down lowers aggregates | inactive
Rab1 | 1 | knock-down lowers aggregates | active
SLO2 | 1 | knock-down lowers aggregates | inactive
pea | 1 | knock-down lowers aggregates | active
CG31111 | 1 | knock-down lowers aggregates | active
par-1 | 1 | knock-down raises aggregates | inactive
mad2 | 1 | knock-down lowers aggregates | inactive
CG6015 | 1 | knock-down lowers aggregates | inactive
Cka | 1 | knock-down lowers aggregates | active
lilli | 1 | knock-down lowers aggregates | active
Polr2F | 1 | knock-down lowers aggregates | inactive
betaCOP | 1 | knock-down lowers aggregates | inactive
deltaCOP | 1 | knock-down lowers aggregates | inactive
RpS30 | 1 | knock-down lowers aggregates | inactive
eIF2beta | 1 | knock-down lowers aggregates | inactive
Uba1 | 1 | knock-down raises aggregates | active
pths | 1 | knock-down lowers aggregates | inactive
sbr | 1 | knock-down lowers aggregates | inactive
RpS4 | 1 | knock-down lowers aggregates | inactive
RpS11 | 1 | knock-down lowers aggregates | inactive
Mfap1 | 1 | knock-down lowers aggregates | inactive
E(bx) | 1 | knock-down raises aggregates | inactive
E(bx) | 2 | knock-down raises aggregates | inactive
RpS15 | 1 | knock-down lowers aggregates | inactive
TfIIEbeta | 1 | knock-down lowers aggregates | inactive
CG14104 | 1 | knock-down lowers aggregates | inactive
sesB | 1 | knock-down lowers aggregates | active
Prp19 | 1 | knock-down lowers aggregates | active
NdufA3 | 1 | knock-down raises aggregates | inactive
BTBD9 | 1 | knock-down lowers aggregates | inactive
Vha26 | 1 | knock-down raises aggregates | inactive
Sec61alpha | 1 | knock-down lowers aggregates | active
RpS14a | 1 | knock-down lowers aggregates | inactive
CG33271 | 1 | knock-down raises aggregates | inactive
Hel25E | 1 | knock-down lowers aggregates | active
Klp67A | 1 | knock-down lowers aggregates | inactive
Sec71 | 1 | knock-down lowers aggregates | inactive
RpL21 | 1 | knock-down lowers aggregates | inactive
Nacalpha | 1 | knock-down lowers aggregates | inactive
mRpL45 | 1 | knock-down lowers aggregates | inactive
Klp98A | 1 | knock-down lowers aggregates | inactive
Slu7 | 1 | knock-down lowers aggregates | active
RpS14b | 1 | knock-down lowers aggregates | inactive
Nup160 | 1 | knock-down lowers aggregates | active
Tpr2 | 1 | – | inactive
gw | 1 | knock-down lowers aggregates | inactive
SNF4Agamma | 1 | knock-down lowers aggregates | inactive
polo | 1 | knock-down lowers aggregates | active
nej | 1 | knock-down raises aggregates | active
S6KL | 1 | knock-down raises aggregates | inactive
CG31805 | 1 | knock-down lowers aggregates | inactive
RpS7 | 1 | knock-down lowers aggregates | inactive
RpL36 | 1 | knock-down lowers aggregates | inactive
RpL26 | 1 | knock-down lowers aggregates | inactive
Tektin-C | 1 | knock-down lowers aggregates | active
Ref1 | 1 | knock-down lowers aggregates | inactive
Prp8 | 1 | knock-down lowers aggregates | inactive
MED30 | 1 | knock-down lowers aggregates | inactive
Taf13 | 1 | knock-down raises aggregates | inactive
mRpS22 | 1 | knock-down lowers aggregates | inactive
lwr | 1 | knock-down lowers aggregates | active
Nxt1 | 1 | knock-down lowers aggregates | inactive
Prosbeta7 | 1 | knock-down lowers aggregates | inactive
brm | 1 | knock-down lowers aggregates | active
mor | 1 | knock-down lowers aggregates | active
CG9300 | 1 | knock-down lowers aggregates | active
pix | 1 | knock-down lowers aggregates | inactive
zetaCOP | 1 | knock-down lowers aggregates | inactive
Nup62 | 1 | knock-down lowers aggregates | active
CG33639 | 1 | knock-down raises aggregates | inactive
mRpL44 | 1 | knock-down lowers aggregates | inactive
